{"source": "patent US20110165085A1", "about": "“TUMOR SELECTIVE FLUORESCENT STAINING AGENT” (THE UNIVERSITY OF TOKYO, priority 2006, published 2011)", "system": "RGK1 and RGM1 cells", "experiment": "Fluorescein leakage rate out of normal and cancer cells", "format": "cell-based, rat", "conditions": "leakage out of the cell", "note": "For at least one compound, name, drawing or mass did not settle the structure."}
{"smiles": "O=C1OC2(c3ccc(O)cc3Oc3cc(O)ccc32)c2ccccc21", "note": "[fluorescein]", "values": [{"measurement": "fluorescein leakage rate, RGK1 versus RGM1", "value": "leakage from RGK1 was slower"}]}
